At least one structure is not confirmed: it was looked up by name or label, or the drawing left a doubt.
Columns and labels:
[1] = system: Staphylococcus aureus; test: Viability of S. aureus exposed to PDA and BV; type: cell-based; conditions: 8 pg/mL PDA and BV, FIG. 7A/7B
[2] = system: Staphylococcus epidermis; test: Viability of S. epidermis exposed to PDA and BV; type: cell-based; conditions: 8 pg/mL PDA and BV, FIG. 7C/7D

## NC[C@H]1O[C@H](O[C@H]2[C@H](O)[C@@H](O[C@H]3O[C@H](CO)[C@@H](O)[C@H](N)[C@H]3O)[C@H](N)C[C@@H]2N)[C@H](O)[C@@H](O)[C@@H]1O [Kanamycin]
[1]
  viability of S. aureus: decrease in viability
[2]
  viability of S. epidermis: decrease in viability
